Taken from: PubChem BioAssay AID1259254 (NCATS, 2017)
Screen: 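Gene knock-downs that lead to re-replication, shown by excess G2 DNA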 (primary screen). Cells: human HCT116 colorectal cancer cells. Reagent: single siRNA against human genes. Timing: 3 days. Measured: 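Nuclei stained with Hoechst and imaged; cell-cycle phase assigned by DNA content; G2 share scaled per plate, non-targeting siRNA 0%, GMNN siRNA 100%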. Scale: G2 robust z-score and G2 cells, % of GMNN control: higher = more G2 cells, more excess DNA replication; raw share of cells in G2: higher = larger share of cells with G2 DNA content. Rule for the call: 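An siRNA counts as active if its G2 robust z-score lies at least 5 MADs above the screen median; here such calls match roughly 38% of GMNN control or more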.
Shown is one part, drawn at random, of about 59,000 deposited reagents. Of all reagents, about 1,550 (2.6%) were called active. 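G2 share is only a proxy for re-replication; each gene was hit by three separate siRNAs, and active genes were retested.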 Raw values vary from plate to plate and are shown uncorrected. Unmarked entries are inactive. The numbers tell different reagents against one gene apart. No sequences are given here. Not given: the amount of reagent.

no.	gene	reagent	G2 robust z-score	G2 cells, % of GMNN control	raw share of cells in G2 (%)
1	LCTL (lactase like)	1	0.527	6.67	9.14
2	LCTL (lactase like)	2	-0.878	-3.21	3.35
3	LCTL (lactase like)	3	0.318	5.21	6.61
4	SYNE1 (spectrin repeat containing nuclear envelope protein 1)	1	2.77	22.5	12.9
5	SYNE1 (spectrin repeat containing nuclear envelope protein 1)	2	-0.802	-2.68	2.78
6	SYNE1 (spectrin repeat containing nuclear envelope protein 1)	3	3.4	26.9	12.7
7	KIF1B (kinesin family member 1B)	1	-0.895	-3.33	5.03
8	KIF1B (kinesin family member 1B)	2	1.2	11.4	7.98
9	KIF1B (kinesin family member 1B)	3	0.704	7.92	6.58
10	RBPJL	1	1.09	10.6	10.6
11	RBPJL	2	3.22	25.7	12.7
12	RBPJL	3	0.791	8.53	6.79
13	CD93 (CD93 molecule)	1	-1.03	-4.26	4.66
14	CD93 (CD93 molecule)	2	0.615	7.29	6.6
15	CD93 (CD93 molecule)	3	-0.228	1.37	4.33
16	C2orf81 (chromosome 2 open reading frame 81)	1	-1.12	-4.91	2.09
17	C2orf81 (chromosome 2 open reading frame 81)	2	-0.737	-2.22	2.44
18	C2orf81 (chromosome 2 open reading frame 81)	3	-0.074	2.45	5.68
19	SENP1 (SUMO specific peptidase 1)	1	-0.977	-3.91	4.2
20	SENP1 (SUMO specific peptidase 1)	2	-0.507	-0.602	4.69
21	SENP1 (SUMO specific peptidase 1)	3	-1.1	-4.79	2.12
22	CEP63 (centrosomal protein 63)	1	2.03	17.2	11.6
23	CEP63 (centrosomal protein 63)	2	1.01	10.1	8.7
24	CEP63 (centrosomal protein 63)	3	-1.2	-5.47	0.88
25	CCSER2 (coiled-coil serine rich protein 2)	1	1.32	12.3	8
26	CCSER2 (coiled-coil serine rich protein 2)	2	2.78	22.5	13.8
27	CCSER2 (coiled-coil serine rich protein 2)	3	-0.827	-2.85	2.25
28	NPHP4 (nephrocystin 4)	1	-0.597	-1.23	3.19
29	NPHP4 (nephrocystin 4)	2	-0.188	1.64	3.68
30	NPHP4 (nephrocystin 4)	3	0.238	4.65	4.68
31	ZNF735 (zinc finger protein 735)	1	-0.993	-4.02	2.02
32	ZNF735 (zinc finger protein 735)	2	3.68	28.9	15
33	ZNF735 (zinc finger protein 735)	3	-0.0999	2.26	4.43
34	ZNF735 (zinc finger protein 735)	4	-0.968	-3.84	1.61
35	ZNF735 (zinc finger protein 735)	5	-0.95	-3.71	2.11
36	ZNF735 (zinc finger protein 735)	6	-1.05	-4.4	2.24
37	CRLF3P1 (CRLF3 pseudogene 1)	1	2.17	18.2	10.2
38	CRLF3P1 (CRLF3 pseudogene 1)	2	-0.727	-2.15	3.1
39	CRLF3P1 (CRLF3 pseudogene 1)	3	1.74	15.2	8.23
40	LOC402279 (glutamate metabotropic receptor 8 pseudogene)	1	0.371	5.58	5.84
41	LOC402279 (glutamate metabotropic receptor 8 pseudogene)	2	0.406	5.83	5.83
42	LOC402279 (glutamate metabotropic receptor 8 pseudogene)	3	-0.296	0.884	5.16
43	POTEA (POTE ankyrin domain family member A (gene/pseudogene))	1	0.525	6.66	6.87
44	POTEA (POTE ankyrin domain family member A (gene/pseudogene))	2	0.0975	3.65	5.24
45	POTEA (POTE ankyrin domain family member A (gene/pseudogene))	3	-0.851	-3.02	1.94
46	BPGM (bisphosphoglycerate mutase)	1	-0.0794	2.41	5.54
47	BPGM (bisphosphoglycerate mutase)	2	2.37	19.6	12.1
48	BPGM (bisphosphoglycerate mutase)	3	-0.739	-2.23	3.16
49	SEC24D (SEC24 homolog D, COPII component)	1	-1.1	-4.77	1.57
50	SEC24D (SEC24 homolog D, COPII component)	2	-1.19	-5.43	2.55
51	SEC24D (SEC24 homolog D, COPII component)	3	2.18	18.3	12.1
52	PCDHB3 (protocadherin beta 3)	1	-1.46	-7.3	1.82
53	PCDHB3 (protocadherin beta 3)	2	0.443	6.08	9.1
54	PCDHB3 (protocadherin beta 3)	3	1.66	14.7	10.5
55	LOC401442	1	-0.514	-0.652	4.52
56	LOC401442	2	1.09	10.7	7.69
57	LOC401442	3	-0.266	1.1	3.95
58	PRSS44P (serine protease 44, pseudogene)	1	0.798	8.58	7.47
59	PRSS44P (serine protease 44, pseudogene)	2	0.902	9.31	6.36
60	PRSS44P (serine protease 44, pseudogene)	3	-0.455	-0.233	3.09
61	PRSS44P (serine protease 44, pseudogene)	4	-0.351	0.499	4.29
62	PRSS44P (serine protease 44, pseudogene)	5	-0.244	1.25	3.64
63	PRSS44P (serine protease 44, pseudogene)	6	0.346	5.4	5.15
64	SPATA7 (spermatogenesis associated 7)	1	-0.172	1.76	5.2
65	SPATA7 (spermatogenesis associated 7)	2	-0.807	-2.71	3.01
66	SPATA7 (spermatogenesis associated 7)	3	-0.804	-2.69	2.28
67	ARHGEF15 (Rho guanine nucleotide exchange factor 15)	1	1.79	15.6	11.1
68	ARHGEF15 (Rho guanine nucleotide exchange factor 15)	2	0.687	7.8	7.36
69	ARHGEF15 (Rho guanine nucleotide exchange factor 15)	3	1.54	13.8	8.33

7 entries from above in another layout.
| gene | reagent | G2 robust z-score | G2 cells, % of GMNN control | raw share of cells in G2 (%) |
| --- | --- | --- | --- | --- |
| SENP1 (SUMO specific peptidase 1) | 2 | -0.507 | -0.602 | 4.69 |
| SENP1 (SUMO specific peptidase 1) | 3 | -1.1 | -4.79 | 2.12 |
| CEP63 (centrosomal protein 63) | 1 | 2.03 | 17.2 | 11.6 |
| CEP63 (centrosomal protein 63) | 2 | 1.01 | 10.1 | 8.7 |
| CEP63 (centrosomal protein 63) | 3 | -1.2 | -5.47 | 0.88 |
| CCSER2 (coiled-coil serine rich protein 2) | 1 | 1.32 | 12.3 | 8 |
| CCSER2 (coiled-coil serine rich protein 2) | 2 | 2.78 | 22.5 | 13.8 |
